This is one part of the list. Single values are uncertain here, since repeats match poorly.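 Human kidney-derived cells stably carry a construct in which eight TEAD-binding elements drive luciferase, measured by luminescence in a drug-repurposing library screen. A hit is any compound whose signal exceeds the plate mean by more than five robust Z scores.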
System: HEK293A TEAD-LUC reporter
Test: TEAD-luciferase reporter activity (YAP activation), robust Z score vs plate; higher = stronger YAP/TEAD activation
Conditions: 24 h

Cc1nc(-c2ccc(OCCCCCOc3ccc(C(=N)N)cc3)cc2)c(C(C)C)s1
TEAD-luciferase reporter activity (compound concentration: 200 nM): inactive: -1.07 | TEAD-luciferase reporter activity (compound concentration: 2 uM): inactive: 0.529 | TEAD-luciferase reporter activity (compound concentration: 10 uM): inactive: 1.62

CC(=O)N1CCN(c2ccc(C=O)cc2)C(=O)C1
TEAD-luciferase reporter activity (compound concentration: 200 nM): inactive: -3.48 | TEAD-luciferase reporter activity (compound concentration: 10 uM): active: 5.4

CC[C@@H]1C(=O)SC[C@@H]1Cc1cncn1C
TEAD-luciferase reporter activity (compound concentration: 200 nM): inactive: 1.25 | TEAD-luciferase reporter activity (compound concentration: 2 uM): inactive: -0.459 | TEAD-luciferase reporter activity (compound concentration: 10 uM): inactive: -0.663

COc1ccc(OC2CN(C(=O)c3ccc4c(c3)OCO4)C2)cc1
TEAD-luciferase reporter activity (compound concentration: 200 nM): inactive: -0.485 | TEAD-luciferase reporter activity (compound concentration: 10 uM): active: 35.2

CC(=N)N1CCC(Oc2ccc(N(CCC(=O)O)C(=O)c3ccc4ccc(C(=N)N)cc4c3)cc2)CC1
TEAD-luciferase reporter activity (compound concentration: 200 nM): inactive: -0.92 | TEAD-luciferase reporter activity (compound concentration: 10 uM): inactive: -0.107

Cc1cc(-c2nncc3c(C(C)(C)C)c(OCc4ncnn4C)nn23)no1
TEAD-luciferase reporter activity (compound concentration: 200 nM): inactive: -1.56 | TEAD-luciferase reporter activity (compound concentration: 2 uM): inactive: -0.433 | TEAD-luciferase reporter activity (compound concentration: 10 uM): inactive: 1.85

CCc1nc2c(n1Cc1ccc(-c3ccccc3-c3nn[nH]n3)cc1)/C(=C/C(=O)O)CCCC2
TEAD-luciferase reporter activity (compound concentration: 200 nM): inactive: 0.154 | TEAD-luciferase reporter activity (compound concentration: 2 uM): inactive: -0.579 | TEAD-luciferase reporter activity (compound concentration: 10 uM): inactive: 0.122

CCCCCCCCCCCOC(=O)C[C@H](C[N+](C)(C)C)OC(=O)CC(C)C
TEAD-luciferase reporter activity (compound concentration: 200 nM): inactive: 0.381 | TEAD-luciferase reporter activity (compound concentration: 2 uM): inactive: 0.19 | TEAD-luciferase reporter activity (compound concentration: 10 uM): inactive: -1.38

CN(C)CCOC(C)(c1ccccc1)c1ccc(Br)cc1 (centres undefined)
TEAD-luciferase reporter activity (compound concentration: 200 nM): inactive: -1.68 | TEAD-luciferase reporter activity (compound concentration: 2 uM): inactive: 0.36 | TEAD-luciferase reporter activity (compound concentration: 10 uM): inactive: 0.392

CC[C@H]1OC(=O)C[C@@H](OC(C)=O)[C@H](C)[C@@H](O[C@@H]2O[C@H](C)[C@@H](O[C@H]3C[C@@](C)(O)[C@@H](OC(=O)CC(C)C)[C@H](C)O3)[C@H](N(C)C)[C@H]2O)[C@@H](CC=O)C[C@@H](C)C(=O)/C=C/C(C)=C/[C@@H]1CO[C@@H]1O[C@H](C)[C@@H](O)[C@@H](OC)[C@H]1OC [Tylvalosin]
TEAD-luciferase reporter activity (compound concentration: 200 nM): inactive: 0.0551 | TEAD-luciferase reporter activity (compound concentration: 2 uM): inactive: -0.541 | TEAD-luciferase reporter activity (compound concentration: 10 uM): inactive: -1.46

O=C(Nc1ccc(Cl)cc1)C1CCCN(C(=O)c2cccc(-c3ccco3)c2)C1 (centres undefined)
TEAD-luciferase reporter activity (compound concentration: 200 nM): inactive: -0.564 | TEAD-luciferase reporter activity (compound concentration: 2 uM): inactive: 0.517 | TEAD-luciferase reporter activity (compound concentration: 10 uM): inactive: -0.338

CC(=O)N1CCC(CCC(=O)c2cc3c4c(c2)CCN4C(=O)CC3)CC1
TEAD-luciferase reporter activity (compound concentration: 200 nM): inactive: 0.182 | TEAD-luciferase reporter activity (compound concentration: 2 uM): inactive: -0.471 | TEAD-luciferase reporter activity (compound concentration: 10 uM): inactive: -1.2

Cc1nc2ccccc2n1Cc1ccc(Cl)cc1
TEAD-luciferase reporter activity (compound concentration: 200 nM): inactive: -0.23 | TEAD-luciferase reporter activity (compound concentration: 2 uM): inactive: -1.34 | TEAD-luciferase reporter activity (compound concentration: 10 uM): active: 6.83

Cc1cccc(C)c1NC(=O)c1cccnc1O
TEAD-luciferase reporter activity (compound concentration: 200 nM): inactive: 0.921 | TEAD-luciferase reporter activity (compound concentration: 2 uM): inactive: -0.67 | TEAD-luciferase reporter activity (compound concentration: 10 uM): inactive: -1.25

CC(C)(C)C(=O)N1CCN(CC(O)COc2ccccc2)CC1 (centres undefined)
TEAD-luciferase reporter activity (compound concentration: 200 nM): inactive: -0.811 | TEAD-luciferase reporter activity (compound concentration: 2 uM): inactive: -0.959 | TEAD-luciferase reporter activity (compound concentration: 10 uM): inactive: 0.88

O=c1ccn(C2OC(COP(=O)([O-])OP(=O)([O-])OP(=O)([O-])OP(=O)([O-])OCC3OC(n4ccc(=O)[nH]c4=O)[C@H](O)[C@@H]3O)[C@@H](O)[C@H]2O)c(=O)[nH]1 (some centres undefined) [Diquafosol]
TEAD-luciferase reporter activity (compound concentration: 200 nM): inactive: -0.79 | TEAD-luciferase reporter activity (compound concentration: 2 uM): inactive: -1.1 | TEAD-luciferase reporter activity (compound concentration: 10 uM): inactive: 1.6

CN1C(C)(C)CCCC1(C)C
TEAD-luciferase reporter activity (compound concentration: 200 nM): inactive: -0.532 | TEAD-luciferase reporter activity (compound concentration: 2 uM): inactive: -1.63 | TEAD-luciferase reporter activity (compound concentration: 10 uM): inactive: 2.87

O=C(c1ccc(Cl)cc1)N1CCC(N2Cc3ccccc3C2=O)CC1
TEAD-luciferase reporter activity (compound concentration: 200 nM): inactive: 0.132 | TEAD-luciferase reporter activity (compound concentration: 10 uM): inactive: 2.64

CCOc1ccc2[nH]cc(C(=O)NCc3ccccc3)c(=O)c2n1
TEAD-luciferase reporter activity (compound concentration: 200 nM): inactive: 0.265 | TEAD-luciferase reporter activity (compound concentration: 2 uM): inactive: -0.538 | TEAD-luciferase reporter activity (compound concentration: 10 uM): inactive: 1.08

Cc1cc(C2CCCCC2)n(O)c(=O)c1 [ciclopirox olamine]
TEAD-luciferase reporter activity (compound concentration: 200 nM): inactive: -0.683 | TEAD-luciferase reporter activity (compound concentration: 10 uM): inactive: -2.03

C#CC1(O)CCC2C3CCC4=Cc5oncc5CC4(C)C3CCC21C (centres undefined) [danazol]
TEAD-luciferase reporter activity (compound concentration: 200 nM): inactive: -1.23 | TEAD-luciferase reporter activity (compound concentration: 2 uM): inactive: -0.872 | TEAD-luciferase reporter activity (compound concentration: 10 uM): inactive: -0.0266

CN(C)c1ccc(C(=C2C=CC(=[N+](C)C)C=C2)c2ccc(N(C)C)cc2)cc1 [Gentian violet]
TEAD-luciferase reporter activity (compound concentration: 2 uM): inactive: 0.747

CN(C)c1ccc(C(=C2C=CC(=[N+](C)C)C=C2)c2ccc(N(C)C)cc2)cc1
TEAD-luciferase reporter activity (compound concentration: 200 nM): inactive: 2.85 | TEAD-luciferase reporter activity (compound concentration: 10 uM): inactive: 1.93

CN(C)CCOCC(=O)N[C@]12C[C@H]3C[C@H](C[C@H](C3)C1)C2
TEAD-luciferase reporter activity (compound concentration: 200 nM): inactive: -1.36 | TEAD-luciferase reporter activity (compound concentration: 2 uM): inactive: -0.495 | TEAD-luciferase reporter activity (compound concentration: 10 uM): inactive: 1.48

CC[N+]1(C)CCC(OC(=O)C(c2noc3ccccc23)N2CCCCCC2)CC1 (centres undefined) [Beperidium iodide]
TEAD-luciferase reporter activity (compound concentration: 200 nM): inactive: -0.103 | TEAD-luciferase reporter activity (compound concentration: 2 uM): inactive: -0.364 | TEAD-luciferase reporter activity (compound concentration: 10 uM): inactive: -0.998

C=C[C@]1(C)CC[C@@H](C(=C)C)C[C@@H]1C(=C)C [Elemene]
TEAD-luciferase reporter activity (compound concentration: 200 nM): inactive: -1.8 | TEAD-luciferase reporter activity (compound concentration: 2 uM): inactive: -2 | TEAD-luciferase reporter activity (compound concentration: 10 uM): inactive: -0.157

Cc1cc(C)cc(-c2ccc(CN3CCCC(NC(=O)c4cccc(Cl)c4)C3)cc2)c1 (centres undefined)
TEAD-luciferase reporter activity (compound concentration: 200 nM): inactive: -0.573 | TEAD-luciferase reporter activity (compound concentration: 10 uM): inactive: 2.47

N#C[C@@H]1CCCN1C(=O)CN[C@H]1CC[C@H](C(=O)N2CCOCC2)CC1
TEAD-luciferase reporter activity (compound concentration: 200 nM): inactive: 0.0681 | TEAD-luciferase reporter activity (compound concentration: 2 uM): inactive: -1.14 | TEAD-luciferase reporter activity (compound concentration: 10 uM): inactive: -0.801

Cc1oc2nc3c(c(NC(=O)CN4CCCC4=O)c2c1C)CCCC3 [coluracetam]
TEAD-luciferase reporter activity (compound concentration: 200 nM): inactive: -2.21 | TEAD-luciferase reporter activity (compound concentration: 2 uM): inactive: -0.504 | TEAD-luciferase reporter activity (compound concentration: 10 uM): inactive: -0.395

C=C=CCNCCCCNCC=C=C
TEAD-luciferase reporter activity (compound concentration: 200 nM): inactive: 2.95 | TEAD-luciferase reporter activity (compound concentration: 2 uM): inactive: 3.29 | TEAD-luciferase reporter activity (compound concentration: 10 uM): inactive: 2.03

CN(C)C1=NCC(c2cc3ccccc3o2)C1 (centres undefined) [prifuroline]
TEAD-luciferase reporter activity (compound concentration: 200 nM): inactive: -1.65 | TEAD-luciferase reporter activity (compound concentration: 2 uM): inactive: -1.28 | TEAD-luciferase reporter activity (compound concentration: 10 uM): inactive: 0.165

CN(C)CCCSCC(=O)C1(c2ccc(Cl)c(Cl)c2)CCC1
TEAD-luciferase reporter activity (compound concentration: 200 nM): inactive: -1.04 | TEAD-luciferase reporter activity (compound concentration: 2 uM): inactive: 0.155 | TEAD-luciferase reporter activity (compound concentration: 10 uM): inactive: 0.772

CCCCCCCCCCCC(=O)N(C)Cc1c(-c2ccc(Cl)cc2)nc2ccccn12
TEAD-luciferase reporter activity (compound concentration: 200 nM): inactive: 0.917 | TEAD-luciferase reporter activity (compound concentration: 2 uM): inactive: -0.11 | TEAD-luciferase reporter activity (compound concentration: 10 uM): inactive: -0.0711

Cn1c2ccc(F)cc2c2c(C(=O)N3CCCC3)cn(-c3ccccc3)c(=O)c21
TEAD-luciferase reporter activity (compound concentration: 200 nM): inactive: -0.946 | TEAD-luciferase reporter activity (compound concentration: 2 uM): inactive: 0.1 | TEAD-luciferase reporter activity (compound concentration: 10 uM): inactive: 1.66

Nc1ncc(C#Cc2ccc(Cl)cc2)c(N[C@H]2CC[C@H](O)CC2)n1
TEAD-luciferase reporter activity (compound concentration: 200 nM): inactive: 0.646 | TEAD-luciferase reporter activity (compound concentration: 2 uM): inactive: -1.64 | TEAD-luciferase reporter activity (compound concentration: 10 uM): inactive: -0.196

CO[C@@]1(NC(=O)CSC[C@@H](N)C(=O)O)C(=O)N2C(C(=O)O)=C(CSc3nnnn3C)CS[C@@H]21 [_:_2016-03-02: cefminox]
TEAD-luciferase reporter activity (compound concentration: 2 uM): inactive: -0.674

CO[C@@]1(NC(=O)CSC[C@@H](N)C(=O)O)C(=O)N2C(C(=O)O)=C(CSc3nnnn3C)CS[C@@H]21 [Cefminox Sodium Heptahydrate]
TEAD-luciferase reporter activity (compound concentration: 200 nM): inactive: -0.886 | TEAD-luciferase reporter activity (compound concentration: 10 uM): inactive: -0.392
